Binding data for one substance are collected here from article PMC11865524.

Sequences of proteins named here, by UniProt entry; tags and fusion partners are left off.
UniProt P20823: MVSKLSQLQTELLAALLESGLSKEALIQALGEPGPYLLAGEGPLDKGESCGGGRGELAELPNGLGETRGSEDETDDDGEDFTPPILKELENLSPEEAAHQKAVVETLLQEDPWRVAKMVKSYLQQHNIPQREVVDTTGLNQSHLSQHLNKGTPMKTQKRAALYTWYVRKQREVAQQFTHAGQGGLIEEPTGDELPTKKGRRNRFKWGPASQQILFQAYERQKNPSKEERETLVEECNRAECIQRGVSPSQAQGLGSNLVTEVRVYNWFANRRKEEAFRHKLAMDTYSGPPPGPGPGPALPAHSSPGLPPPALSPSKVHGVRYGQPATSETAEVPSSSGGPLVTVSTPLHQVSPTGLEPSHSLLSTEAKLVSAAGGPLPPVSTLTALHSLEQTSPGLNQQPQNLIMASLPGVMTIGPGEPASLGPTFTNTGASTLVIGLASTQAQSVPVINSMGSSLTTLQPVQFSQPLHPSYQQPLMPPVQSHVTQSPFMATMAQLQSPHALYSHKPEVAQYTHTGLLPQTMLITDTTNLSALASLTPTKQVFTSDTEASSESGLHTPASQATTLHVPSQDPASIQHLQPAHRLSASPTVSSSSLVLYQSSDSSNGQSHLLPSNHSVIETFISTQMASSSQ
UniProt P29034: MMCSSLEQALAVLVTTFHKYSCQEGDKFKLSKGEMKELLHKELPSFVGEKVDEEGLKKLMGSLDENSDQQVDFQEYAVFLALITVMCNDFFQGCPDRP

No constants are given. Whether binding was seen depends on the method and setting. In cells and extracts the contact can be indirect. Some entries that bind do so weakly or less than the wild type.

The target in the experiment is endogenous HNF1A (human (endogenous in 769-P and OSRC-2)) (UniProt P20823). The experiment is described as follows: co-IP; endogenous proteins in 769-P cell lysate; anti-HNF1A antibody overnight at 4 °C, Protein A/G kit 3 h at room temperature, PBST washes, immunoblot. A general note: In western blotting, separated proteins are transferred to a membrane and probed.

Take “endogenous S100A2 (from UniProt P29034 1-98)”: the binding entry is “binds”.
